According to paper PMC4728358:
No constants are given. Whether binding was seen depends on the method and setting. In cells and extracts the contact can be indirect. Some entries that bind do so weakly or less than the wild type.

The chains behind the UniProt entries cited, without tags or fusion partners. Residues count along the entry.
UniProt P09803, residues 734-884: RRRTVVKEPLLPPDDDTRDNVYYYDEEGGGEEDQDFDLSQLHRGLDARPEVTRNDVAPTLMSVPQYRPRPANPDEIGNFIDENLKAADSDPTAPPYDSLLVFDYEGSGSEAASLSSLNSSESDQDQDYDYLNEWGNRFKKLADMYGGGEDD
UniProt Q02248: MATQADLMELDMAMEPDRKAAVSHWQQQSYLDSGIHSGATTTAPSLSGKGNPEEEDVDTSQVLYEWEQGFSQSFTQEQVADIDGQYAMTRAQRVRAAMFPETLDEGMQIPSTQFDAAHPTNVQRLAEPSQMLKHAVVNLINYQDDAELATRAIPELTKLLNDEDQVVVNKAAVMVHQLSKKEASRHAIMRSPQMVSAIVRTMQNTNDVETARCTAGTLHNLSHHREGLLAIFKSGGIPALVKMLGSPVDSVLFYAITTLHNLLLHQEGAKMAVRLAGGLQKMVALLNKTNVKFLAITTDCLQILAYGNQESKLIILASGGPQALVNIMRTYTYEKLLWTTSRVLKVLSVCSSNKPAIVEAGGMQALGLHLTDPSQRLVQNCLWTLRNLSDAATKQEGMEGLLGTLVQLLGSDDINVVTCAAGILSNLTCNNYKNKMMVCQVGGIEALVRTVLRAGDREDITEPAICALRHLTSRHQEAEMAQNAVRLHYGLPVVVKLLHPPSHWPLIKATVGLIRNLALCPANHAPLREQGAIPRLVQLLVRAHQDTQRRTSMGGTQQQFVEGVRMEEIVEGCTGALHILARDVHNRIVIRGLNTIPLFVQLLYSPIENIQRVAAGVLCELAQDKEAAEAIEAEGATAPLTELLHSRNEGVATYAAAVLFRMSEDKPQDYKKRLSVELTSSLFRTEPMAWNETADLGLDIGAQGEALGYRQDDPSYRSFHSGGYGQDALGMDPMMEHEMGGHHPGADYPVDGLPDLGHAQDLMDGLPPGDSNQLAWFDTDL

Target: DsRed-tagged E-cadherin cytoplasmic domain (DECT) (UniProt P09803)
Experiment: co-IP; FLAG-tagged DsRed constructs immunoprecipitated with anti-FLAG from stably transfected C2C12 cells; precipitates immunoblotted with anti-β-catenin or anti-plakoglobin

binding: binds
Substance: β-catenin (from UniProt Q02248 1-781)
